# Measurements reported in US5399691A, “Substituted benzoylurea derivatives or their salts” (Ishihara Sangyo Kaisha Ltd., priority 1991, dated 1995).
# Counter-ions that a name gives are not always drawn. Some results were stated once for a whole list of compounds, not compound by compound.
# System: BDF1 mice
# Test: Acute toxicity
# Assay type: in vivo
# Conditions: intravenous, 25 mg/kg mouse, Formulation Example 1
# Experimental: None of BDF1 mice were dead by intravenously administering each formulation of Compound Nos. 1 to 9, 20, 49 and 53 of the present invention prepared in accordance with Formulation Example 1 in an amount of 25 mg/kg mouse (on the basis of compound).
# 0.125 part by weight of the above mentioned Compound No. 1 was dissolved in 5 parts by weight of N,N-dimethylacetamide and 5 parts by weight of polyoxyethylene sorbitan monooleate, and 90 parts by weight of physiological saline was added thereto to form a solution formulation in an agate mortar.
row,SMILES,BDF1 mice dead
1,"NCC(=O)Nc1ccccc1C(=O)NC(=O)Nc1ccc(Oc2ncc(Br)cn2)c(Cl)c1 [Compound No. 1, N-[4-(5-bromo-2-pyrimidinyloxy)-3-chlorophenyl]-N'-(2-glycylamino)benzoylurea hydrochloride]",None
2,"CN(C)CC(=O)Nc1ccccc1C(=O)NC(=O)Nc1ccc(Oc2ncc(Br)cn2)c(Cl)c1 [Compound No. 2, N-[4-(5-bromo-2-pyrimidinyloxy)-3-chlorophenyl]-N'-[2-(N,N-dimethylglycyl)amino]benzoylurea hydrochloride]",None
3,C[C@H](N)C(=O)Nc1ccccc1C(=O)NC(=O)Nc1ccc(Oc2ncc(Br)cn2)c(Cl)c1 [Compound No. 3],None
4,C[C@@H](N)C(=O)Nc1ccccc1C(=O)NC(=O)Nc1ccc(Oc2ncc(Br)cn2)c(Cl)c1 [Compound No. 4],None
5,CSCC[C@H](N)C(=O)Nc1ccccc1C(=O)NC(=O)Nc1ccc(Oc2ncc(Br)cn2)c(Cl)c1 [Compound No. 5],None
6,"Cc1cc(NC(=O)NC(=O)c2ccccc2NC(=O)CN)ccc1Oc1ncc(Br)cn1 [Compound No. 7, N-[4-(5-bromo-2-pyrimidinyloxy)-3-methylphenyl]-N'-(2-glycylamino)benzoylurea]",None
7,NCC(=O)Nc1ccccc1C(=O)NC(=O)Nc1ccc(Oc2ncc(Cl)cn2)c(C(F)(F)F)c1 [compound 6],None
8,NCC(=O)NCC(=O)Nc1ccccc1C(=O)NC(=O)Nc1ccc(Oc2ncc(Br)cn2)c(Cl)c1 [compound 8],None
9,NCC(=O)Nc1ccccc1C(=O)NC(=O)Nc1ccc(Oc2ncc(Cl)cn2)c(Cl)c1 [compound 9],None
